{"source": "patent US20060068386A1", "about": "“Complete genome and protein sequence of the hyperthermophile methanopyrus kandleri av19 and monophyly of archael methanogens and methods of use thereof” (priority 2002, published 2006)", "key": {"[1]": {"target": "T1, Fen1 (5'-3' exonuclease, MK0566) (Methanopyrus kandleri AV19) (UniProt Q8TXU4)", "T1 sequence (limits assumed)": "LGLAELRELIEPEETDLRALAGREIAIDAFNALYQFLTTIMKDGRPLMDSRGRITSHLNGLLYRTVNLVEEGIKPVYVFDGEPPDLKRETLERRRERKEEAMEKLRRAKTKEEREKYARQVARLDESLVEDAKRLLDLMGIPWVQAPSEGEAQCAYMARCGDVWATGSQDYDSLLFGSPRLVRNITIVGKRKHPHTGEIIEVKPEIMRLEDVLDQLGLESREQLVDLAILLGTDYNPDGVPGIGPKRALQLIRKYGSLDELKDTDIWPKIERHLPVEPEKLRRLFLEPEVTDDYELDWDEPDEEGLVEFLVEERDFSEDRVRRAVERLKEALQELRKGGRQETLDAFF", "assay": "enzyme reaction in vitro", "details": "1 mM Mn2+, 55 C, 10 min; purified recombinant protein; protein details: additional Met at N-terminus, pET21d in E. coli; label: 5'-fluorescein; folded or branched DNA"}, "[2]": {"test_system": "T2, DNA polymerase PolB (family B, MK1039) (Methanopyrus kandleri AV19)", "T2 sequence (limits assumed)": "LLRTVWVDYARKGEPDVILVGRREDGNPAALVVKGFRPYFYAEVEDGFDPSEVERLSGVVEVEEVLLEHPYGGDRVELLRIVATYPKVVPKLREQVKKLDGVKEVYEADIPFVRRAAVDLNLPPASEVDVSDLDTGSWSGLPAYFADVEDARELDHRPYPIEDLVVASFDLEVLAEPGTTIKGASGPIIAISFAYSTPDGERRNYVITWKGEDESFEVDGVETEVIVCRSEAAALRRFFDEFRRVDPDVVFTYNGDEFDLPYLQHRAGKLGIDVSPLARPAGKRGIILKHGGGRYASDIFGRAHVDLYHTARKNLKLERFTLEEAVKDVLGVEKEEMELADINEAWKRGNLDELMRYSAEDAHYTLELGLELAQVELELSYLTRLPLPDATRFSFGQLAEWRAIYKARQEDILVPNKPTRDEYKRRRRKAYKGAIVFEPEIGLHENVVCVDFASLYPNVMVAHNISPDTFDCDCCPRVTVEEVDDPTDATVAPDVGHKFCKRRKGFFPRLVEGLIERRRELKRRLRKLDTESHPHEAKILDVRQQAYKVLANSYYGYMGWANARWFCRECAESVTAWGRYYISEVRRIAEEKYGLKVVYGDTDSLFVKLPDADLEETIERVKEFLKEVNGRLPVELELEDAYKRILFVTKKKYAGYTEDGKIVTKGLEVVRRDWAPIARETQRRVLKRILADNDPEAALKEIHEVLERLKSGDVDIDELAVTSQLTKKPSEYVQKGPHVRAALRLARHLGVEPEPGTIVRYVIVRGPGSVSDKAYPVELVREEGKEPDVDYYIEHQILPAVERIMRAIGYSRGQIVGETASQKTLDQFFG", "assay": "enzyme reaction in vitro", "details": "3'-5' exonuclease; cleaves off only 9 nt, 13-nt primer shortest substrate; purified recombinant protein; protein details: Met-Gly at N-terminus, pET21d in E. coli; label: 5'-fluorescein; single-stranded DNA"}}, "note": "Protein sequences can lack the tags named with them."}
{"sequence": "CTATAGGGAGACCGGAATTCGAGCTCGCCCGGGCGAGCTCGAATTCCGTGTATTTATA [Fen1 substrate oligonucleotide (APAV0062)]", "values": [{"measurement": "activity on this sequence", "setting": "[1]", "result": "active"}]}
{"sequence": "GTAATACGACTCACTATAGGG [fluorescent primer for exonuclease assay]", "values": [{"measurement": "activity on this sequence", "setting": "[2]", "result": "active"}]}
